# Source: the supplement of paper PMC11732987, “Enantioselective OTUD7B fragment discovery through chemoproteomics screening and high-throughput optimisation” (Communications Chemistry, 2025)
# Protein sequences, listed by entry. Tags and fused reporters are not part of them. Lines headed by an entry give the natural chain unless they say otherwise; changes in a name come on top. Residues count along the entry.
# UniProt P06400: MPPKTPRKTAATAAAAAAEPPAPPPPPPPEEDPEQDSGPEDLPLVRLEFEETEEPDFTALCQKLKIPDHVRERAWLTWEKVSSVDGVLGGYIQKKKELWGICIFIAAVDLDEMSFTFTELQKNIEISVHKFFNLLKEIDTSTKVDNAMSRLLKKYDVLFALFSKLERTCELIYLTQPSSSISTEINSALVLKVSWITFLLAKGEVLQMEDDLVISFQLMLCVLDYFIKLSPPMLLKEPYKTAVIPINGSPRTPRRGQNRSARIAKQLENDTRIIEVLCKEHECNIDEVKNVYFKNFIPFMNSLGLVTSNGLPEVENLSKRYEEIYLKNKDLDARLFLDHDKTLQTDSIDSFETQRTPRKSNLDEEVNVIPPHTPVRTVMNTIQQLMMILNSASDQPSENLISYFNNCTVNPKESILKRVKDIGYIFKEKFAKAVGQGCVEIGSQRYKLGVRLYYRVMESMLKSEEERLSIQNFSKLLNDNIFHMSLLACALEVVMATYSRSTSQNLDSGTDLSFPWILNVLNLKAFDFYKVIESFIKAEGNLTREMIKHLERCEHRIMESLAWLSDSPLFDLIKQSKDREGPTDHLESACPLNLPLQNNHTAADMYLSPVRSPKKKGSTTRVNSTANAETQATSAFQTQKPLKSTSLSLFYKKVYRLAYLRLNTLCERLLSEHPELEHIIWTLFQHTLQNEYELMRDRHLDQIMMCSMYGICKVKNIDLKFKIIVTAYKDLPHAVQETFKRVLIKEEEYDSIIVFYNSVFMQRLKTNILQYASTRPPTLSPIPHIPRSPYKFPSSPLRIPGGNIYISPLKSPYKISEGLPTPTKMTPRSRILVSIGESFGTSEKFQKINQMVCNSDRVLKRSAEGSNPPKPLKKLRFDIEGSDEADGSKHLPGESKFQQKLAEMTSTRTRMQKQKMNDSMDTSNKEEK
# UniProt Q684P5: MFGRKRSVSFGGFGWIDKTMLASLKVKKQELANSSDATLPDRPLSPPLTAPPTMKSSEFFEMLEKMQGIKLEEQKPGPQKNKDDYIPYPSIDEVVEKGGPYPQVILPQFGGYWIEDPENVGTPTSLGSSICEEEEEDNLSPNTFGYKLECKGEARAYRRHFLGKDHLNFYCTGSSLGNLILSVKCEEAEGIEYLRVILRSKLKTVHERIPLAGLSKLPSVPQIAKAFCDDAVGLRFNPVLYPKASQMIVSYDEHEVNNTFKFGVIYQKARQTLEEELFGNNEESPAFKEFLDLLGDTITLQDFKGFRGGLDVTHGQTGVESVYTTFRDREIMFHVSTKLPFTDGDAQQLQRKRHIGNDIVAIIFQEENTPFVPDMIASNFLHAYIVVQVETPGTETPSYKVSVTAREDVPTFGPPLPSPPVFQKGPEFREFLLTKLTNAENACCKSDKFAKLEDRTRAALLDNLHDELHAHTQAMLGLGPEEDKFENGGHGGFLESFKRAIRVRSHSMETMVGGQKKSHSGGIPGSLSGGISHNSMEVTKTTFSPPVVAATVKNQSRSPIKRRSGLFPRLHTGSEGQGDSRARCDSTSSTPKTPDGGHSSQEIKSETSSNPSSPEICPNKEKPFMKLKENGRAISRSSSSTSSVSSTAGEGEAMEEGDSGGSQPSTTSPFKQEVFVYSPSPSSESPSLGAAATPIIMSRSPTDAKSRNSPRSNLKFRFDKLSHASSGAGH
# UniProt Q8IZV5: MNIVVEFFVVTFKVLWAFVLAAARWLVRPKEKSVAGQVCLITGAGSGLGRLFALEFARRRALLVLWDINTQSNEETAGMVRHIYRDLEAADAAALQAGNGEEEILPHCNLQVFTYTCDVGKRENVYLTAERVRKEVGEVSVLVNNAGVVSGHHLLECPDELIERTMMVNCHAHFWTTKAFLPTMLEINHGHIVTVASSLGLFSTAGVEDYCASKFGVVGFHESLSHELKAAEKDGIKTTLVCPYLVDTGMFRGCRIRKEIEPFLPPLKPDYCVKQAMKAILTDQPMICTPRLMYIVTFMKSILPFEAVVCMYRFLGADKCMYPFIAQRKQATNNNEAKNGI
# UniProt Q5T160: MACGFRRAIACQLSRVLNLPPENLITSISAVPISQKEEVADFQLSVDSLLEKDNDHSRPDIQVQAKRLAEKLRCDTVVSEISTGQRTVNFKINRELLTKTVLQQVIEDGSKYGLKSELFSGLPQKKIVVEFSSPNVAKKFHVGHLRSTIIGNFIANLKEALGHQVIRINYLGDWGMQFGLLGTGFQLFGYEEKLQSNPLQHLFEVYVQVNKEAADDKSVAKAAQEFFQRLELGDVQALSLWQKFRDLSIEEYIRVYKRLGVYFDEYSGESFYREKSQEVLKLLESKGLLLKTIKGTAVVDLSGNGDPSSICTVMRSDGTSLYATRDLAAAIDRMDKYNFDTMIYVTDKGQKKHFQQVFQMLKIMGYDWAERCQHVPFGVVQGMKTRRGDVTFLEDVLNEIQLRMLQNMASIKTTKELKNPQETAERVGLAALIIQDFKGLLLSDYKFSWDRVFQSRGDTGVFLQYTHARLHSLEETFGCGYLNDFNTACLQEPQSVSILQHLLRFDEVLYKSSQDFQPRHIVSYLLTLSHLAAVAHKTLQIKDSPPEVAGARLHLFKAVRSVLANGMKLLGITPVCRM
# UniProt Q9P258, 42-68: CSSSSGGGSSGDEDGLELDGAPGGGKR
# UniProt Q86X10: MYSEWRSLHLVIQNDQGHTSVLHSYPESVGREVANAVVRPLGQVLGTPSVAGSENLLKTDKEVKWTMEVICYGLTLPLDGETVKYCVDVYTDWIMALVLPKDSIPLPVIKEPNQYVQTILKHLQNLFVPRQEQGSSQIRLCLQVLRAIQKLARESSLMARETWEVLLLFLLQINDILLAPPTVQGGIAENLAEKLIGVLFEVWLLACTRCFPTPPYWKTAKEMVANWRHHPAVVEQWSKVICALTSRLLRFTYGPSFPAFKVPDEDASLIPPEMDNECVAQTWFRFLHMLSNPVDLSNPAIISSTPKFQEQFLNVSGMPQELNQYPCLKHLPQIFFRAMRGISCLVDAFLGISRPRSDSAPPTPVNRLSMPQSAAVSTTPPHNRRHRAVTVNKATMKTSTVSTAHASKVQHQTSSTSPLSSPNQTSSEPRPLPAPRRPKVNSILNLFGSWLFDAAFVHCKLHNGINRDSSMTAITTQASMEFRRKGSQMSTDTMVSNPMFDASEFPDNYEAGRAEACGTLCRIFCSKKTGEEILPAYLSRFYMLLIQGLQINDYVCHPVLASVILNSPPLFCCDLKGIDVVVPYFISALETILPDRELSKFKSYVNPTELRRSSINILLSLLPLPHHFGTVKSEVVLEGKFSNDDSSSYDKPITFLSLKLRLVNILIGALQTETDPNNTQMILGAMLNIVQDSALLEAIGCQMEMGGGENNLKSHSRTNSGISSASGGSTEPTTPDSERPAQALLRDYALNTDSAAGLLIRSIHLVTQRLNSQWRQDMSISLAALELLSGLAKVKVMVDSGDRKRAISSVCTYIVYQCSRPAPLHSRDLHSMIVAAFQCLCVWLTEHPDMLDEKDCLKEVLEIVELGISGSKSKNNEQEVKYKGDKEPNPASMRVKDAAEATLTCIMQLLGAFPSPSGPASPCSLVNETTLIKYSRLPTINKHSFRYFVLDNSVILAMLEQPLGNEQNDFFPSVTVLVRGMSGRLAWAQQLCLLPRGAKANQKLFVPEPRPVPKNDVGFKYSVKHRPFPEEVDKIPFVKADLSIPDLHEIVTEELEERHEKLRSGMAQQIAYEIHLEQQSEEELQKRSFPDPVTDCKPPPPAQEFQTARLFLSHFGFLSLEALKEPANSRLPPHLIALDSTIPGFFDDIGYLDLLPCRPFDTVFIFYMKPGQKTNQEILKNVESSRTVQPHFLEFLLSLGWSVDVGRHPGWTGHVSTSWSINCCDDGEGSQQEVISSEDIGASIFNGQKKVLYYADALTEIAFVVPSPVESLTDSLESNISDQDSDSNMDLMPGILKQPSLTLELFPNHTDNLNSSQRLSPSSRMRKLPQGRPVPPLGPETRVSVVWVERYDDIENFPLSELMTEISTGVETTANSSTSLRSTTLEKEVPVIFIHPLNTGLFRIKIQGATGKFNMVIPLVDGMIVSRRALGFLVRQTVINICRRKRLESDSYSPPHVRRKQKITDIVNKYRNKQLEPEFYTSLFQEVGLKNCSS
# UniProt Q13129: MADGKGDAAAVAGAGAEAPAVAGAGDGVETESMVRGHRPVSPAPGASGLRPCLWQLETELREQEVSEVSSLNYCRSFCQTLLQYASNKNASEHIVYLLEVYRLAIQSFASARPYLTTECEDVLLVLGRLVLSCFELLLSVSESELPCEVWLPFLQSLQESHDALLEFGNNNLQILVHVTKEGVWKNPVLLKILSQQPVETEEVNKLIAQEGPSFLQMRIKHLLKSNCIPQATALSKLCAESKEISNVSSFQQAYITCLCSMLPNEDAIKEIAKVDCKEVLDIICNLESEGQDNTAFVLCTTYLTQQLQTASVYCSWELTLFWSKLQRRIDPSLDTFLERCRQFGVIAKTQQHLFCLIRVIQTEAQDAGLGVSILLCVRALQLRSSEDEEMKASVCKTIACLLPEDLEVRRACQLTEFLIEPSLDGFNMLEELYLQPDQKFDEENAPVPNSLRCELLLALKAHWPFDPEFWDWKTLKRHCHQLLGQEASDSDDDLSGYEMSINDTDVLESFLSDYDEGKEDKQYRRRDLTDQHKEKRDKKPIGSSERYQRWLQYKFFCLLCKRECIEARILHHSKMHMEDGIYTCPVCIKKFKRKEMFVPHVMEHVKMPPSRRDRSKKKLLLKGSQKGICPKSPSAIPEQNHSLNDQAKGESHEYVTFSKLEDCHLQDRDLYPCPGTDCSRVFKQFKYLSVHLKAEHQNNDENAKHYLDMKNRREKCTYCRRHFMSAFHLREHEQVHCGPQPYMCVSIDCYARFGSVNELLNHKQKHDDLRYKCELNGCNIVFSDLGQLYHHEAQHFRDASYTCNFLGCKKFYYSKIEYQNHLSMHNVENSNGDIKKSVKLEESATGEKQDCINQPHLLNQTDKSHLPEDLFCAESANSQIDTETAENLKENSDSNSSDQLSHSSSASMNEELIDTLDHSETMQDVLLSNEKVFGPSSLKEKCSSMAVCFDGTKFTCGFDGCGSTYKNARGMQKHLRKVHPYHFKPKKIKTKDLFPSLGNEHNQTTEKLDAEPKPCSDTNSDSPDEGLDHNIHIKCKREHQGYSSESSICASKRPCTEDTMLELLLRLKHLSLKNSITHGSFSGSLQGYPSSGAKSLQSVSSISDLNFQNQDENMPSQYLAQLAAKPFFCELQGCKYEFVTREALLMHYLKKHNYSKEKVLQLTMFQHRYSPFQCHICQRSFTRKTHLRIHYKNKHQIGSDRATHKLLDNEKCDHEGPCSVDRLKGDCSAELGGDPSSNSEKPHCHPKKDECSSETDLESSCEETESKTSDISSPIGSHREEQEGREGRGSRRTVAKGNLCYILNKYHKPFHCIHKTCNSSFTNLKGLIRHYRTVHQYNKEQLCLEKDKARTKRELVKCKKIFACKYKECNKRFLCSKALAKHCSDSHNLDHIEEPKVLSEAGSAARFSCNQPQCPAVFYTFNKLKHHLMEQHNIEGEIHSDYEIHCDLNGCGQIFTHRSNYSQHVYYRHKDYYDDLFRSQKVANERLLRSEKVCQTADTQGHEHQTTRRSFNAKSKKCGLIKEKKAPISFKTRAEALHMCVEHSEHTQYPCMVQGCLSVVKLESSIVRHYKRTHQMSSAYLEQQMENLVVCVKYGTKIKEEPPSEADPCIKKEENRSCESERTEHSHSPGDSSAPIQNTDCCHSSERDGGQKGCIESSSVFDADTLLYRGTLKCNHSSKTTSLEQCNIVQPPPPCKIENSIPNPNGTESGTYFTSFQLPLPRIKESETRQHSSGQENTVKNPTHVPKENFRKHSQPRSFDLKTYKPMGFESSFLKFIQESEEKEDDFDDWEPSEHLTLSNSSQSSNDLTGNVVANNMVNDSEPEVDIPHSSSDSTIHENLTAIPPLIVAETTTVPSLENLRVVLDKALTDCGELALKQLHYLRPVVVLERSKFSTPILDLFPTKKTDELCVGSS
# UniProt O43353: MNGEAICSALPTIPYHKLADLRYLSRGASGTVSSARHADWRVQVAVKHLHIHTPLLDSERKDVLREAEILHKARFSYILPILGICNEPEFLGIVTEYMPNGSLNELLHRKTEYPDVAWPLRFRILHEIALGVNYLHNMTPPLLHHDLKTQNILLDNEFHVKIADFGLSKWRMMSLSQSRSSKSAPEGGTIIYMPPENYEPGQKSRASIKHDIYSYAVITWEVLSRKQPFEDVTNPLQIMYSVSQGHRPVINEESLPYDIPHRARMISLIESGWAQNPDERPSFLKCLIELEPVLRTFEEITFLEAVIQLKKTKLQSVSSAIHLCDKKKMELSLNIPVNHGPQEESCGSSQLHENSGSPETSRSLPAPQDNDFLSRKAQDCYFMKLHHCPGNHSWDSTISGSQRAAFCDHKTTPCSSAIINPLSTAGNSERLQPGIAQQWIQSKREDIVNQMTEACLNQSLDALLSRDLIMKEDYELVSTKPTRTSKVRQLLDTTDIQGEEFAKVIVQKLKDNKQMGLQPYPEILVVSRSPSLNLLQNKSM
# Some of the results follow. The data scatter; read single values as rough.
# Compound: ClCC(=O)N[C@H]1CCCc2ccccc12
# Experiment: log2 mean competition ratio of IA-DTB cysteine labelling (DMSO/compound) (log2 ratio); higher = stronger cysteine engagement by compound
# Details: 50 µM; treatment time: 4 h; cell line lysate: HEK293T
# Protocol: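 IA-DTB competitive cysteine chemoproteomics in HEK293T RIPA lysate. Lysates were treated with compound 29 or 30 at 50 or 200 µM for 4 h, then IA-DTB (500 µM, 1 h), trypsin-digested, NeutrAvidin-enriched and analysed by diaPASEF. Competition ratio = intensity DMSO / intensity compound (n=4 treated, n=64 DMSO); binding: mean log2 CR ≥ 1 and p ≤ 0.05 plus QC filters. Target is the cysteine site.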
row,Target,log2 mean competition ratio
1,RB1 C438 (UniProt P06400),-0.307
2,RB1 C666 (UniProt P06400),-0.124
3,RBM34 C196 (UniProt P42696),-0.132
4,RBL2 C635 (UniProt Q08999),0.036
5,RAP1GAP2 C617 (UniProt Q684P5),-0.00239
6,RBM19 C77 (UniProt Q9Y4C8),-0.0059
7,RETSAT C534 (UniProt Q6NUM9),0.186
8,RANBP2 C188 (UniProt P49792),-0.181
9,RDH10 C272 (UniProt Q8IZV5),-0.204
10,RARS2 C576 (UniProt Q5T160),0.189
11,RARS1 C502,0.0983
12,RCC2 C42 (UniProt Q9P258),0.0198
13,RALGAPB C1442 (UniProt Q86X10),0.305
14,RIMOC1 C51,0.196
15,RASAL2 C415 (UniProt Q9UJF2),-0.328
16,RFC1 C916 (UniProt P35251),0.0816
17,RLF C1494 (UniProt Q13129),0.142
18,RHOF C173 (UniProt Q9HBH0),0.217
19,RIC8A C79 (UniProt Q9NPQ8),0.0812
20,RIPK2 C324 (UniProt O43353),-0.0604

# Same assay, conditions: 200 µM; treatment time: 4 h; cell line lysate: HEK293T
row,Target,log2 mean competition ratio
1,RB1 C438 (UniProt P06400),-0.118
2,RB1 C666 (UniProt P06400),-0.227
3,RBM34 C196 (UniProt P42696),0.232
4,RBL2 C635 (UniProt Q08999),-0.0983
5,RAP1GAP2 C617 (UniProt Q684P5),-0.202
6,RBM19 C77 (UniProt Q9Y4C8),0.184
7,RETSAT C534 (UniProt Q6NUM9),0.176
8,RANBP2 C188 (UniProt P49792),-0.138
9,RDH10 C272 (UniProt Q8IZV5),0.368
10,RARS2 C576 (UniProt Q5T160),0.305
11,RARS1 C502,0.0172
12,RCC2 C42 (UniProt Q9P258),-0.0951
13,RALGAPB C1442 (UniProt Q86X10),-0.155
14,RIMOC1 C51,0.196
15,RASAL2 C415 (UniProt Q9UJF2),0.0797
16,RFC1 C916 (UniProt P35251),0.13
17,RLF C1494 (UniProt Q13129),0.0774
18,RHOF C173 (UniProt Q9HBH0),-0.116
19,RIC8A C79 (UniProt Q9NPQ8),0.454
20,RIPK2 C324 (UniProt O43353),0.202
